# For at least one entry, the source does not settle the construct or the ends of the probe.
# Test system: thrombin (human)
# Experiment: binding assay
# Settings: 5' NH2; Aptamer immobilized from 1 uM in PBS; assay buffer; commercial protein; folded or branched DNA
sequence,measurement,value
AGTCCGTGGTAGGGCAGGTTGGGGTGACT [29-mer thrombin aptamer (TBA)],Kd,500 pM
